# Primary screen of a compound library

Chains of the proteins cited; added tags and fusions are not shown. Residues count along the entry.
UniProt A4I591, 1-473: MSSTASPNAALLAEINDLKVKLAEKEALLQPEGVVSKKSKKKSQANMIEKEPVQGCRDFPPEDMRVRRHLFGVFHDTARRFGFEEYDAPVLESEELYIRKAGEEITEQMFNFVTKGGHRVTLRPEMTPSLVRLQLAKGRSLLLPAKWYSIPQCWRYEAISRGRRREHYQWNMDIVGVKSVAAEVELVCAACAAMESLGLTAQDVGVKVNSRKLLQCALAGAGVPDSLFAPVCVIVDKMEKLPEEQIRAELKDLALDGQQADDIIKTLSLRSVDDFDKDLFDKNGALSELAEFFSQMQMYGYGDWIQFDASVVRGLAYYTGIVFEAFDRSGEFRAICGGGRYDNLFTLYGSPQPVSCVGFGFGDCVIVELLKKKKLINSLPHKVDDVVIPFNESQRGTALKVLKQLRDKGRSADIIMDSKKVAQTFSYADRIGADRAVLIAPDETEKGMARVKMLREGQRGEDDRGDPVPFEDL
UniProt Q8IDJ8, 1-583: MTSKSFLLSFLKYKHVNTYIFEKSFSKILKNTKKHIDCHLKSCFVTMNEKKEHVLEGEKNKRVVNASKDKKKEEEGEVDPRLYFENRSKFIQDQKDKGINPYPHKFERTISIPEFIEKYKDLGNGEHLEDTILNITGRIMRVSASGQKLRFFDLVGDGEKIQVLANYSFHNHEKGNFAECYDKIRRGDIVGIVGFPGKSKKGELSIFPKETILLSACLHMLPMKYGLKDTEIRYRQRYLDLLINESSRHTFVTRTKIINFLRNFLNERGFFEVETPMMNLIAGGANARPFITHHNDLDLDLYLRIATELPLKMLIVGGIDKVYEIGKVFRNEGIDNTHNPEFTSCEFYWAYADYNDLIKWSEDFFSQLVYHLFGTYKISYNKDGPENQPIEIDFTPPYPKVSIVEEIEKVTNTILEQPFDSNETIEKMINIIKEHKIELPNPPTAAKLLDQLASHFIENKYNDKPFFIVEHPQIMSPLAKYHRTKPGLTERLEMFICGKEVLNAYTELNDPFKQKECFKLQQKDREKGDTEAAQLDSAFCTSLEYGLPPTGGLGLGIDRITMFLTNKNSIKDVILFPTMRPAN
UniProt Q4DA54, 1-478: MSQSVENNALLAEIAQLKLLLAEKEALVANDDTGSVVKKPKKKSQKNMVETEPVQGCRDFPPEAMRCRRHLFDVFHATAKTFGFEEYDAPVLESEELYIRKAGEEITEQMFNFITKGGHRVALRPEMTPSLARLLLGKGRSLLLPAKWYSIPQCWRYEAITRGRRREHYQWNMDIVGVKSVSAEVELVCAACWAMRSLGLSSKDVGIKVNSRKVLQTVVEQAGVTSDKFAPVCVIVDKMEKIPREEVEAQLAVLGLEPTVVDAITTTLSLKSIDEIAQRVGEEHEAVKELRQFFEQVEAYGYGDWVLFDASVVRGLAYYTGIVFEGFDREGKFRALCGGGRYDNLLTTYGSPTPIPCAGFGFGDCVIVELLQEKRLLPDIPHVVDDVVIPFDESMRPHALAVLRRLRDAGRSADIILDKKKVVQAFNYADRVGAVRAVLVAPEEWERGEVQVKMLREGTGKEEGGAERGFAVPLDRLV

The values are deposited in ChEMBL (CHEMBL3988442, “University of Dundee, Small-Polar-MMV Screening Library” (2021)).

LiHisRS: 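Histidine-tRNA ligase, Leishmania infantum (UniProt A4I591). Enzyme assay of histidyl-tRNA synthetase; the read-out is not stated. Compounds at 30 µM. The record gives no direction; compounds that gave an IC50 in retests scored well above the rest, so higher reads as stronger inhibition. The assay is labelled LdHisRS but filed under L. infantum. Of about 69,000 compounds tested this way, about 410 (0.6%) reached 50% or more in at least one test.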
PfKRS1: 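Enzyme assay of the cytosolic lysyl-tRNA synthetase in 384-well plates, read by luminescence. Target: Lysine-tRNA ligase, Plasmodium falciparum 3D7 (UniProt Q8IDJ8). Compounds at 30 µM. Higher reads as stronger inhibition, judged from the few compounds that gave an IC50. About 69,000 compounds were tested under these conditions; 0.071% (about 49) showed 50% or more at least once.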
TcHisRS: 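Histidine-tRNA ligase, Trypanosoma cruzi CL Brener (UniProt Q4DA54). Enzyme assay of histidyl-tRNA synthetase; the read-out is not stated. Tested at 30 µM. Higher reads as stronger inhibition (inferred: compounds with an IC50 in retests scored well above the rest). Size under these conditions: about 69,000 compounds, about 31 of them at 50% or above in at least one test.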

Values are the deposited “Percent Effect”, in %.
How 0% and 100% were set is not recorded. Most values in the screen are low, and negative values occur.
The compounds are a random part of those screened.

compound,LiHisRS,PfKRS1,TcHisRS
CC(=O)NCCNC(=O)CCn1c(C)cc2ccccc21,13.58,0.2982,4.911
Cc1csc(CN(CC2CCCO2)C(=O)c2cccnc2C)n1 (stereo not shown),2.083,1.402,5.063
CN(C(=O)CN1CCCC1c1cnn(C)c1)C1(C#N)CCCCC1 (stereo not shown),9.677,-0.3027,6.186
Cc1ccc(C(=O)NC2CCN(Cc3noc(C(C)(C)C)n3)CC2)s1,12.94,3.064,2.242
COCCNC(=O)[C@@]12CCO[C@@H]1CCN(Cc1cc(C)on1)C2,10.09,2.216,5.882
Cc1csc(CNCc2c(C)nn(C)c2N2CCOCC2)n1,16.07,-1.029,5.917
CSc1ccccc1C(=O)N1CCN(C)C2(CCC(=O)N(C)CC2)C1 (stereo not shown),19.58,10.99,6.468
CN(C)C(=O)COC1COC2(CCN(c3ncccn3)CC2)C1 (stereo not shown),11.76,2.09,5.911
Cc1c(CN2CCCC(C(=O)Nc3ccccc3)C2)cc(C#N)n1C (stereo not shown),-20.65,0.4596,-0.9901
COc1cccc2c1CCC2NC(=O)NCc1csc(N(C)C)n1 (stereo not shown),28.36,2.522,-2.128
CC(=O)c1ccc(NC(=O)C(NC(=O)Nc2ccccc2)C(C)C)cc1 (stereo not shown),8.696,-0.9462,2
CCOCCn1nc(C)cc1C(=O)N1CCCC[C@H](N(C)C)C1,12,-0.5025,4.523
O=C(NCCc1ccc(Cl)s1)NCc1nnc2n1CCC2,16.67,2.753,3.03
CSc1ccc(C2CC(=O)Nc3c2c(=O)[nH]n3C(C)C)cc1 (stereo not shown),18.18,7.718,4.848
O=C(NCC1(N2CCOCC2)CCSC1)Nc1ccncc1 (stereo not shown),17.81,2.881,2.956
O=C(N1CCOCC1)N1CCc2ncnc(NC3CCC3)c2CC1,22.94,5.92,4.327
Cc1ccc(OCC(C)NS(=O)(=O)N(C)C)cc1 (stereo not shown),2.564,2.657,5.556
O=C(COc1ccccc1NCc1ccc(F)cc1)N1CCOCC1,12.2,-3.475,5.288
Cc1nn(CCO)cc1CN1CCCC1c1nc2c(C)cccc2[nH]1 (stereo not shown),15.62,1.179,4.255
Fc1cccc(-n2cccn2)c1NCc1nnc(C2CC2)o1,6.061,2.273,-1.058
Cc1cc2[nH]c(CN3CCOC(c4ccc(F)cc4)C3)cc(=O)n2n1 (stereo not shown),26.67,9.689,2.381
COc1ccc(COCC(O)CNC(=O)c2ccc(C#N)cc2)cc1 (stereo not shown),7.826,2.294,3.944
CC(C)C[C@H]1CN(c2nc3c(cc2C(N)=O)CCC3)CC[C@@]1(C)O,17.24,6.859,6.186
COc1ccc(OC)c(C(C)Nc2ncnc3c2NC(=O)CN3)c1 (stereo not shown),23.46,5.963,4.911
COCCNC(=O)[C@@]12CCO[C@@H]1CCN(Cc1ccc(OC)cc1)C2,15.6,6.04,10.92
O=C(c1cc(-c2cn[nH]c2)nc2ccc(F)cc12)N1CCSCC1,11.83,3.226,4.167
CN(CCn1cccn1)S(=O)(=O)N1CCCC1c1ccco1 (stereo not shown),-6.154,3.637,2.682
CN(C)C(=O)Cc1nc(CN2CCCCC2Cn2cncn2)cs1 (stereo not shown),14.4,-7.549,2.941
c1cnc(NCc2nnn3c2CN(Cc2ccco2)CCC3)nc1,22.22,0.6416,4.294
CC1CCc2nn(CCNC(=O)c3cccs3)c(=O)cc2C1 (stereo not shown),0,-0.4005,1.55
O=C(c1cc(Cl)c(Br)[nH]1)N1CCN(Cc2ccco2)CC1,23.08,3.359,0
C=Cc1ccc(C(=O)NC2CCCc3nc(N(C)C)ncc32)cc1 (stereo not shown),8.065,2.047,-4.082
NC(=O)C1CCN(CC(=O)N2CCCC2c2ccsc2)CC1 (stereo not shown),6.897,5.649,1.571
CN1C(=O)CCc2cc(NS(=O)(=O)Cc3cccc(F)c3)ccc21,8.333,2.136,9.392
C[C@@H]1CN(CC(C)(C)N2CCCCC2)C[C@@]1(O)C1CC1,1.493,1.9,2.128
COc1ccccc1OCC(=O)Nc1ncccc1C,6.849,-0.1477,5.911
COc1ccc(-c2noc(C(N)CCSC)n2)cc1OC (stereo not shown),-7.692,0.3661,0.9901
c1ccc(CCCN2CCCC2Cn2cncn2)cc1 (stereo not shown),17.09,0.4556,11.11
Cc1nc(C)c(C(=O)N2CCc3nc4sc(C)cc4c(=O)n3CC2)o1,6,2.594,3.745
CN1CCN(C2CCN(CCOc3ccc(F)cc3)CC2)C1=O,0,2.029,3.817
Cn1cncc1CNC1CC2(CCN(CC3CC3)CC2)c2ccccc21 (stereo not shown),20.69,8.465,6.329
CSc1cccc(CNC(=O)[C@H]2CNC[C@@H](C(=O)N3CCOCC3)C2)c1,14.75,-2.471,0.8
CC(C)CNC(=O)CC1OCCc2ccsc21 (stereo not shown),7.895,3.378,10.34
c1ccc(CN2Cc3ccnn3CC(COCc3cccnc3)C2)nc1 (stereo not shown),25,0.4919,6.522
Cc1cccc(N2CCC(N3CCC4(CCCNC4=O)C3)CC2)c1C (stereo not shown),26.47,8.22,1.587
CCOCc1cncc2c1CCN(S(=O)(=O)c1ccccc1)C2,-14.53,2.644,3.743
CNCC(=O)N1CCCC(c2ccnc(Nc3cnccn3)n2)C1 (stereo not shown),19.79,8.858,9.574
CCS(=O)(=O)CC(=O)NC(c1ccccc1)C1CCCCC1 (stereo not shown),28.57,4.539,-13.04
CC(C)(C)c1oc(C(N)=O)cc1CN1CCOC(C(F)(F)F)C1 (stereo not shown),20.43,5.307,0.5952
CCc1cc(N(C)Cc2noc(CC(C)C)n2)ncn1,-5.594,-3.982,4.478
CCc1noc(CN(C)CC(c2cccs2)N2CCOCC2)n1 (stereo not shown),5.455,1.476,8.772
CC(C)c1noc(CN2CCN(C(=O)c3cccnc3O)CC2)n1,5.357,0.8239,2.326
COCCc1noc(CN2CC(C)(c3ccccc3)CCC2=O)n1 (stereo not shown),10,4.8,3.409
Cc1nn(C)c2ncnc(N(C)CC3CCN(CC(C)C)C3)c12 (stereo not shown),20.63,2.735,7.692
CNS(=O)(=O)c1ccc(C)c(C(=O)NCCNc2ncccn2)c1,9.649,2.461,2.89
COc1ccc(CNC(C)c2ccc(Cl)c(Cl)c2)c(OC)c1OC (stereo not shown),4.464,-0.4346,3.333
CNC(=O)N1C[C@H]2C[C@H](C(=O)Nc3cccnc3)[C@@H](C1)O2,8,0.7837,5.882
Cc1nccn1CC1CCN(C(=O)c2cccs2)CC1,25.64,-3,4.819
CC(C)c1nn(CC(=O)N2CCCCC2)c(=O)c2c1cnn2C(C)(C)C,19.23,7.152,6.612
O=C1N(c2ccsc2)CCC12CCCN(c1ccccn1)C2 (stereo not shown),9.901,1.202,2.513
CS(=O)(=O)NC1CCCN(C(=O)NCc2cccc(F)c2)C1 (stereo not shown),15.04,-0.3116,7.289
Cc1ccccc1N1CCN(C(=O)c2cccnc2-n2cncn2)CC1,12.33,6.969,4.926
CC(NC(=O)Nc1cc(F)cc(F)c1)c1nc[nH]n1 (stereo not shown),9.836,7.442,6.977
Cc1ccc(CNC(=O)N2CCCCC2CCNS(C)(=O)=O)cc1 (stereo not shown),13.46,-1.943,5
N#Cc1ccc(C(=O)N2C[C@@H](CN3CCCC3)C[C@H](CO)C2)cc1,17.81,1.023,-1.98
CC(CCc1ccc(F)c(F)c1)NS(=O)(=O)Cc1ccon1 (stereo not shown),14.29,-8.942,5.941
Cc1cc2c(=O)n3c(nc2s1)CCN(C(=O)c1c(C)noc1C)CC3,10,-1.072,4.494

4 of the entries, repeated:

- CCc1noc(CN(C)CC(c2cccs2)N2CCOCC2)n1 (stereo not shown) | LiHisRS: 5.455%; PfKRS1: 1.476%; TcHisRS: 8.772%
- Cc1csc(CN(CC2CCCO2)C(=O)c2cccnc2C)n1 (stereo not shown) | LiHisRS: 2.083%; PfKRS1: 1.402%; TcHisRS: 5.063%
- Cc1nc(C)c(C(=O)N2CCc3nc4sc(C)cc4c(=O)n3CC2)o1 | LiHisRS: 6%; PfKRS1: 2.594%; TcHisRS: 3.745%
- CNCC(=O)N1CCCC(c2ccnc(Nc3cnccn3)n2)C1 (stereo not shown) | LiHisRS: 19.79%; PfKRS1: 8.858%; TcHisRS: 9.574%